The supplement of paper PMC10849652
The list shows a part of the results.

The chains behind the UniProt entries cited, without tags or fusion partners. Where a name states a change or a piece, a line headed by the entry shows the natural chain unless it says otherwise.
UniProt Q6ZN28: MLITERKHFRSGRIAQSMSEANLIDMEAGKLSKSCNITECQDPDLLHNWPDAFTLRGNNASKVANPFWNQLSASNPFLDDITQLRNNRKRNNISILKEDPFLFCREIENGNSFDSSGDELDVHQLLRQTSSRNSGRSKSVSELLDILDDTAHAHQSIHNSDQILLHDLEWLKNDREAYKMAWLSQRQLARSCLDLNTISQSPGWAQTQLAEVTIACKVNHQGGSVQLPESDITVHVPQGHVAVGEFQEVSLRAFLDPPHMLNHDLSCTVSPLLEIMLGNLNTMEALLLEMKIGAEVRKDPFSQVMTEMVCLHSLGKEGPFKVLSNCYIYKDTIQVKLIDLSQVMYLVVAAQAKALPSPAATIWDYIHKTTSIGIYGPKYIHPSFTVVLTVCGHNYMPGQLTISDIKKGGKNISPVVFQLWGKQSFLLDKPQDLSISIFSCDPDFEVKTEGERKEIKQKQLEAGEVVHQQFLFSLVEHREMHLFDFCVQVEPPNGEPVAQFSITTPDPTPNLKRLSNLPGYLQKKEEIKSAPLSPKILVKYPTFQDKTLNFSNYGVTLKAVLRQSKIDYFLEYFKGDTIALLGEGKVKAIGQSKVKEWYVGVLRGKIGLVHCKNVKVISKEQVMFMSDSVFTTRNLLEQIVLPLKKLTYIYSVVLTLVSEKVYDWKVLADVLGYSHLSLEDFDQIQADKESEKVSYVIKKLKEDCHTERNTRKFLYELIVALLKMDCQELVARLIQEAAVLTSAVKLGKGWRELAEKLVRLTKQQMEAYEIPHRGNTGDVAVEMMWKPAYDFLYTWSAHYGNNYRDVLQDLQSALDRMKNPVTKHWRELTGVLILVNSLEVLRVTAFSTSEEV
UniProt P78559: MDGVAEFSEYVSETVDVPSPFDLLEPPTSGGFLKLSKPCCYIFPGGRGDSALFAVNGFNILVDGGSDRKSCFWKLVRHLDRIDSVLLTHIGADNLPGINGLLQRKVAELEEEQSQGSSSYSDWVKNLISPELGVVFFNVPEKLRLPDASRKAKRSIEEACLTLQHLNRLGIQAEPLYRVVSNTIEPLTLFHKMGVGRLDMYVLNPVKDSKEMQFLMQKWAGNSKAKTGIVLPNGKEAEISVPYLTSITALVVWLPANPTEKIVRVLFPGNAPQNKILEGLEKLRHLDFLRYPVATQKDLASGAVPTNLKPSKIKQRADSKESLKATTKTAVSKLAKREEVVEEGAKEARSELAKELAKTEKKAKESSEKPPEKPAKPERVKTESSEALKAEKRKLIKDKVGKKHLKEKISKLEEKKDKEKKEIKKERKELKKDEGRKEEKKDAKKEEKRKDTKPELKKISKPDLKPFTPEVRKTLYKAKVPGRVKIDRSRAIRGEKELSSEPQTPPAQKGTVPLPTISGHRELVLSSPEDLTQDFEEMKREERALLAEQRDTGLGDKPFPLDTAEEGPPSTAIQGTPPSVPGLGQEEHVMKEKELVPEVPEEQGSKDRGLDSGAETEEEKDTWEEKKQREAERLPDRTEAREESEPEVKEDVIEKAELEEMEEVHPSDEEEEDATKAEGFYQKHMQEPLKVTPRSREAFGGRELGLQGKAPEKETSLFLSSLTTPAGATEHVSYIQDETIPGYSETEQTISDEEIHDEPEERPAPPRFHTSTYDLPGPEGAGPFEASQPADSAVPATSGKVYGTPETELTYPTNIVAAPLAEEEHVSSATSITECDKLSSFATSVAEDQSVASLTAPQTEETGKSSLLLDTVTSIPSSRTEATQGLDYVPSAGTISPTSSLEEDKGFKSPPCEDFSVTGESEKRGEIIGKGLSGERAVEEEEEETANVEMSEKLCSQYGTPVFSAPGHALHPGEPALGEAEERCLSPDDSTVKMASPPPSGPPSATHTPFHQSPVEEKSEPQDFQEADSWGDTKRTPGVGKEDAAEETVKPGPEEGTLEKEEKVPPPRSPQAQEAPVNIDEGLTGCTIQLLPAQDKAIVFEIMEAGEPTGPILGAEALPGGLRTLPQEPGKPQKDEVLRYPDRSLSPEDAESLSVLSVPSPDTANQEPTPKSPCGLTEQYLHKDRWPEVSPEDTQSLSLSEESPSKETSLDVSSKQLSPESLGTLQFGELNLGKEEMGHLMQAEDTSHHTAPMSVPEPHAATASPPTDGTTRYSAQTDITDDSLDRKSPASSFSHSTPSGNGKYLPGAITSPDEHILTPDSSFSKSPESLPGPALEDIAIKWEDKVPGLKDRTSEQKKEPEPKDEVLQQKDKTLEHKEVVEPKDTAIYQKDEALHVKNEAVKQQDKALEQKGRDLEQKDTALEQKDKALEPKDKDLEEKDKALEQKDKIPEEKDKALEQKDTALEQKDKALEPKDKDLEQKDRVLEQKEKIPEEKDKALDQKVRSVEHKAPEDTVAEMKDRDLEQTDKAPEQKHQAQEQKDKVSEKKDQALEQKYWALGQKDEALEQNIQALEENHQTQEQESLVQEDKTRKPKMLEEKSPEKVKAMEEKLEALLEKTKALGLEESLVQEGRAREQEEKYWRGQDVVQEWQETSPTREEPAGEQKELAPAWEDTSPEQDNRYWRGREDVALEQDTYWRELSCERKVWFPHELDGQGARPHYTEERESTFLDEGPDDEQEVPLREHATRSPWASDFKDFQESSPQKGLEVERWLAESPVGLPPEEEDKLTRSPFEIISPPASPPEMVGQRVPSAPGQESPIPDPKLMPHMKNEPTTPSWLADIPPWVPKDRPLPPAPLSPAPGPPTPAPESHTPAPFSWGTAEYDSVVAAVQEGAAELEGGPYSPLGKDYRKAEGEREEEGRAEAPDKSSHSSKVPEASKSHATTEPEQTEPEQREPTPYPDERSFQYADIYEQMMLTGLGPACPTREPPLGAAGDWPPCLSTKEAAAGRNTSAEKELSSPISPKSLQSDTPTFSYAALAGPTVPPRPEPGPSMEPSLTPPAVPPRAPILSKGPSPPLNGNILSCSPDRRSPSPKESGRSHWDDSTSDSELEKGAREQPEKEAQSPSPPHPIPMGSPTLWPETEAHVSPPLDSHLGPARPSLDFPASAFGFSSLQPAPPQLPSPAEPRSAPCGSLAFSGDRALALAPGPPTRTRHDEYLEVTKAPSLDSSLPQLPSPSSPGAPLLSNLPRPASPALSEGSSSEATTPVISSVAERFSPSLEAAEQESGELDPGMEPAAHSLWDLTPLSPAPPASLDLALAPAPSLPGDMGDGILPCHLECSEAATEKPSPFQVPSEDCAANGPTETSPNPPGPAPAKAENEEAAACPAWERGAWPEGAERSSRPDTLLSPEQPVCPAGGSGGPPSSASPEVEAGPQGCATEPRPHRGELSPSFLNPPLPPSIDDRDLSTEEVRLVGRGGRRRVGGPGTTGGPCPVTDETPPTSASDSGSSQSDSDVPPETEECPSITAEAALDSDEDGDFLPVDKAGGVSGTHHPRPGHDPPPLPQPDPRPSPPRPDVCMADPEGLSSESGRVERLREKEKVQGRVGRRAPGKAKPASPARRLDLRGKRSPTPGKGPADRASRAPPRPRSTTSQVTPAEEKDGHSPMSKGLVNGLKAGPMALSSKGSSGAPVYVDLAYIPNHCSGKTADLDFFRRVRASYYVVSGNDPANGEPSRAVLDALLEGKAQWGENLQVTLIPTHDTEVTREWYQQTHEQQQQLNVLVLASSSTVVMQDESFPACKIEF
UniProt P49641: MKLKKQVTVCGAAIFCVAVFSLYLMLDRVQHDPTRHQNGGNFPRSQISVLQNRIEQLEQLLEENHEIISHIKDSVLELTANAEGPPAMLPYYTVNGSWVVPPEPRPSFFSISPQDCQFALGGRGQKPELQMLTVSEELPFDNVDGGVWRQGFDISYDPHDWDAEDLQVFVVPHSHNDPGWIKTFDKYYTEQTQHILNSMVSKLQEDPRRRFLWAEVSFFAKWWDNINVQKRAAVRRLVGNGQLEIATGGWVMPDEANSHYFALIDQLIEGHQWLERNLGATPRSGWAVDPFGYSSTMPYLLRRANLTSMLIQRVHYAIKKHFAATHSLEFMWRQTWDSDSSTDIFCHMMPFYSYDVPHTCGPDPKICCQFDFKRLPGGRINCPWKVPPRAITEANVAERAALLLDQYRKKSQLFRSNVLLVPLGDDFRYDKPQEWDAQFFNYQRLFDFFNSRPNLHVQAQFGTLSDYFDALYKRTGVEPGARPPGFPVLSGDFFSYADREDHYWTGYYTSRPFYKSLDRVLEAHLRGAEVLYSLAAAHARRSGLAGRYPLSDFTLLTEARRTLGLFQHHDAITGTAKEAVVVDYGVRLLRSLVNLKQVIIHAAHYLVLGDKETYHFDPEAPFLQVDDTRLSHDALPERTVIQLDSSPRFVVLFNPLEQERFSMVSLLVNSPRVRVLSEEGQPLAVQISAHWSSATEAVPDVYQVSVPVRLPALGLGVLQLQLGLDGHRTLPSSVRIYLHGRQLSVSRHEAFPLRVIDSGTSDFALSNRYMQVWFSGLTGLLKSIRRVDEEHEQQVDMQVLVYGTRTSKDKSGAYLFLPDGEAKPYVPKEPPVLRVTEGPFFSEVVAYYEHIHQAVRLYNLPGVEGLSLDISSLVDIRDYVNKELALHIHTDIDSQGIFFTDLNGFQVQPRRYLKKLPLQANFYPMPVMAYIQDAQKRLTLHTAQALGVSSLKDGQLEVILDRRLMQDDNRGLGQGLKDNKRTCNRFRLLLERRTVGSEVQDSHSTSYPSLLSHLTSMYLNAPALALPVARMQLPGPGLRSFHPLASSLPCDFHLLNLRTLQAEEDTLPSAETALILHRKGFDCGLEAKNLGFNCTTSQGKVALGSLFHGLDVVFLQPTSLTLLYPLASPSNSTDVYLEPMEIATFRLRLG
UniProt Q9Y4Z0: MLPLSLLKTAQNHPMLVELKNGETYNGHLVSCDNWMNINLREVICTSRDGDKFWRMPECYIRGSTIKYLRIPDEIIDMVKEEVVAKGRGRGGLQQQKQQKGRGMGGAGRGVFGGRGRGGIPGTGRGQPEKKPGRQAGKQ
UniProt Q8IWT6: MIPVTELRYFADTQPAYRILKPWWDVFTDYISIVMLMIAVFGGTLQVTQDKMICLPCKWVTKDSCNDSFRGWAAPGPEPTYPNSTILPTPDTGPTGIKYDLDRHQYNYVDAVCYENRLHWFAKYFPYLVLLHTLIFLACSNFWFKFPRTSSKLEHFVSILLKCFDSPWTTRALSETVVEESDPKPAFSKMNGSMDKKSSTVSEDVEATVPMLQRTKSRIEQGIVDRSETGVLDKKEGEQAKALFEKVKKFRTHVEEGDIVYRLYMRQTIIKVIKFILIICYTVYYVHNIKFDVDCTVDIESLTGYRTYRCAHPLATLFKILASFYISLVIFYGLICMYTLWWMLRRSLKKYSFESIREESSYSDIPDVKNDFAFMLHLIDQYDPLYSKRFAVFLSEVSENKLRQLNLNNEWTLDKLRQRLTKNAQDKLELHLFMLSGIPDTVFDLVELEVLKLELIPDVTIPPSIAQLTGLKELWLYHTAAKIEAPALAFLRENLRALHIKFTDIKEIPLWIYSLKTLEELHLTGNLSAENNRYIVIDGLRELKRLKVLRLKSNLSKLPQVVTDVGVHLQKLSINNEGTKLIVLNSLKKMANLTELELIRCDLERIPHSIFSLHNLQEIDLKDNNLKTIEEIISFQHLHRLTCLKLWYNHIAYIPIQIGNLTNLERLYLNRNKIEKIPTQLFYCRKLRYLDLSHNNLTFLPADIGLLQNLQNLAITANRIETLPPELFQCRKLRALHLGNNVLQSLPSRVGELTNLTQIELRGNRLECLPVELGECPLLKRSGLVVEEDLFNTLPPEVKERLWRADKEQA
UniProt Q3KQU3: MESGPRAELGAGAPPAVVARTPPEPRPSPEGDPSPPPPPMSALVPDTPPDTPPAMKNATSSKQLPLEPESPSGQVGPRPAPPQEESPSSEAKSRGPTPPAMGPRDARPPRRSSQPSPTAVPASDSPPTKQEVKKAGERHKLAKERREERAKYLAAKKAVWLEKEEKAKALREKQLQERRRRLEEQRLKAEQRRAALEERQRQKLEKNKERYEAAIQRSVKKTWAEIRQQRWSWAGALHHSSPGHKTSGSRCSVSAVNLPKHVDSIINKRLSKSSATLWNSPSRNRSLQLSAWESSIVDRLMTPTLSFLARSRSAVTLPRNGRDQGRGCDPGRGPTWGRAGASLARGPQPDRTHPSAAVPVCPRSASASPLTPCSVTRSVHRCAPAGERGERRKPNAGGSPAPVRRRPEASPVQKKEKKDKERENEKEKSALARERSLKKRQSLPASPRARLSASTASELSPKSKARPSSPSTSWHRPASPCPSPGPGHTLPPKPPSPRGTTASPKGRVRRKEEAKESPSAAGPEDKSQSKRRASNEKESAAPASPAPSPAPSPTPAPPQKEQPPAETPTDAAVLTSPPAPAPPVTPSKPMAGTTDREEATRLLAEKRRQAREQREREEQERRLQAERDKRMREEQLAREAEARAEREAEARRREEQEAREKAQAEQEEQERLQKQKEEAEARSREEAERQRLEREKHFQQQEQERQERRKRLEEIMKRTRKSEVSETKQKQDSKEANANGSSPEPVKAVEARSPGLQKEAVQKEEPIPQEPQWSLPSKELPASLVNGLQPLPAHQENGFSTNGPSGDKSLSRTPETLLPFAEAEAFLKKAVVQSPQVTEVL

Tests used:
Test in all cases: log2 fold change, soluble protein after heating vs DMSO (PISA); higher = thermal stabilisation; K562 cells, 10 uM, 30 min; active = over 0.2 and 3.5 SD of the protein, either way, in both replicates (recomputed)
[1] = compound: CC[C@@H]1C(=O)N(C)c2cnc(Nc3ccc(C(=O)NC4CCN(C)CC4)cc3OC)nc2N1C1CCCC1
Method in brief: (§1)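 Thermal stability values are relative to control samples and come from duplicates. They are expressed as log2 fold changes. For measurement, K562 cells (2×10^6 cells/mL) received 10 μM compound for 30 min, and aliquots were heated for 3 min over 48°C-58°C, pooled, and extracted at 4°C in PBS with 0.5% NP-40. Soluble protein, the supernatant after 21,000xg for 90 min, was quantified by TMTpro 16plex LC-MS/MS with equalised channel sums.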

[2] = compound: CC[C@@H]1C(=O)N(C)c2cnc(Nc3ccc(C(=O)N[C@H]4CC[C@H](N5CCN(CC6CC6)CC5)CC4)cc3OC)nc2N1C(C)C [volasertib]
Method in brief: as §1

[3] = compound: CC[C@H](C)N1C=C(C2=C(C=C(C=C21)C3=CN=C(C=C3)N4CCNCC4)C(=O)NCC5=C(C=C(NC5=O)C)C)C
Method in brief: as §1

[4] = compound: CC[C@H](C)[C@@H](C(=O)N[C@@H]([C@@H](C)O)C(=O)N[C@@H](CC(C)C)C(=O)[C@]1(CO1)C)NC(=O)[C@H]([C@@H](C)CC)N(C)C(=O)C [epoxomicin]
Method in brief: as §1

[5] = compound: CCn1c(C(=O)N(C2CC2)C2CC2)cc2c3c(ncn3C)c(Nc3cc(C)n(C)n3)nc21
Method in brief: as §1

[6] = compound: CCn1cc(-c2ccnc3[nH]c(-c4cccc(CN(C)C)c4)cc23)c(-c2ccc(NC(=O)N(C)C)cc2)n1
Method in brief: as §1

[7] = compound: CN(C)CC(=O)Nc1ccc2[nH]c(=O)c3ccccc3c2c1
Method in brief: as §1

[8] = compound: CN(CCOC1=CC=C(C=C1)C[C@H]2C(=O)NC(=O)S2)C3=CC=CC=N3 (racemic) [rosiglitazone]
Method in brief: as §1

[9] = compound: CN1C2=C(C3=C1C(=O)N(N=C3)CC4=CC(=CC=C4)N)SC(=C2)S(=O)C
Method in brief: as §1

[10] = compound: CN1CCC(CNc2ccc3ncc(-c4cccc(OC(F)(F)F)c4)n3n2)CC1
Method in brief: as §1

[11] = compound: CN1CCN(CCOc2cc(OC3CCOCC3)c3c(Nc4c(Cl)ccc5c4OCO5)ncnc3c2)CC1 [saracatinib]
Method in brief: as §1

[12] = compound: CN1CCN(c2nc(C3=C(c4c[nH]c5ccccc45)C(=O)NC3=O)c3ccccc3n2)CC1 [sotrastaurin]
Method in brief: as §1

[13] = compound: CN1CC[C@H](c2c(O)cc(O)c3c(=O)cc(-c4ccccc4Cl)oc23)[C@H](O)C1 [alvocidib]
Method in brief: as §1

[14] = compound: CN1CCc2c(c3ccccc3n2Cc2ccc(C(=O)NO)cc2)C1 [Tubastatin A]
Method in brief: as §1

[15] = compound: CNC(=O)C1=CC=CC=C1NC2=NC(=NC=C2Cl)NC3=C(C=C(C=C3)N4CCOCC4)OC
Method in brief: as §1

[16] = compound: CNC(=O)c1ccc(Nc2ncc(C(F)(F)F)c(NCc3nccnc3N(C)S(C)(=O)=O)n2)cc1 [defactinib]
Method in brief: as §1

[17] = compound: CNCc1ccc(-c2[nH]c3cc(F)cc4c3c2CCNC4=O)cc1 [rucaparib]
Method in brief: as §1

[18] = compound: CNc1nc(-c2ccc3c(N)n[nH]c3c2)cc(N2C[C@@H](C(=O)NC3CCCCC3)CC[C@H]2C)n1
Method in brief: as §1

[19] = compound: COC(=O)N[C@@H](C)CNc1nccc(-c2cn(C(C)C)nc2-c2cc(Cl)cc(NS(C)(=O)=O)c2F)n1 [encorafenib]
Method in brief: as §1

[20] = compound: COC(=O)[C@H](CCSC)NC(=O)C1=C(C=C(C=C1)NC[C@H](CS)N)C2=CC=CC=C2
Method in brief: as §1

Measured: log2 fold change

MARCHF5 (UniProt Q9NX47)
inactive: [1] 0.017 | [2] 0.036 | [3] -0.02 | [4] 0.033 | [5] -0.072 | [6] -0.031 | [7] 0.04 | [8] 0.028 | [9] -0.082 | [10] 0.11 | [11] 0.047 | [12] 0.028 | [13] -0.075 | [14] 0.016 | [15] -0.036 | [16] -0.054 | [17] -0.025 | [18] -0.063 | [19] 0.042 | [20] -0.02

MACC1 (UniProt Q6ZN28)
inactive: [1] 0.005 | [2] -0.036 | [3] -0.173 | [4] 0.033 | [5] -0.027 | [6] -0.04 | [7] -0.008 | [8] 0.027 | [9] -0.121 | [10] -0.084 | [11] 0.007 | [12] 0.059 | [13] 0.138 | [14] -0.07 | [15] -0.054 | [16] -0.056 | [17] -0.023 | [18] -0.067 | [19] 0.085 | [20] 0.068

LSM1 (UniProt O15116)
inactive: [1] 0.014 | [2] 0.066 | [3] -0.053 | [4] -0.018 | [5] 0.002 | [6] -0.074 | [7] 0.01 | [8] 0.045 | [9] -0.046 | [10] 0 | [11] 0.018 | [12] 0.023 | [13] 0.026 | [14] -0.026 | [15] -0.068 | [16] -0.004 | [17] -0.039 | [18] 0.018 | [19] -0.024 | [20] 0

Pulled one by one from above, 2 records:
LSM1 (UniProt O15116)
inactive: [1] 0.014 | [2] 0.066 | [3] -0.053 | [4] -0.018 | [5] 0.002 | [6] -0.074 | [7] 0.01 | [8] 0.045 | [9] -0.046 | [10] 0 | [11] 0.018 | [12] 0.023 | [13] 0.026 | [14] -0.026 | [15] -0.068 | [16] -0.004 | [17] -0.039 | [18] 0.018 | [19] -0.024 | [20] 0

MARCHF5 (UniProt Q9NX47)
inactive: [1] 0.017 | [2] 0.036 | [3] -0.02 | [4] 0.033 | [5] -0.072 | [6] -0.031 | [7] 0.04 | [8] 0.028 | [9] -0.082 | [10] 0.11 | [11] 0.047 | [12] 0.028 | [13] -0.075 | [14] 0.016 | [15] -0.036 | [16] -0.054 | [17] -0.025 | [18] -0.063 | [19] 0.042 | [20] -0.02

Continued:

MAN1A2 (UniProt O60476)
inactive: [1] -0.035 | [2] -0.116 | [3] 0.038 | [4] 0.007 | [5] -0.011 | [6] 0.032 | [7] -0.021 | [8] 0.006 | [9] -0.024 | [10] 0.013 | [11] 0.066 | [12] -0.006 | [13] 0.011 | [14] -0.015 | [15] -0.026 | [16] 0.097 | [17] 0.025 | [18] -0.01 | [19] -0.024 | [20] 0.041

LSM14B (UniProt Q9BX40)
inactive: [1] 0.025 | [2] -0.181 | [3] 0.105 | [4] -0.043 | [5] -0.031 | [6] -0.056 | [7] 0.038 | [8] 0.057 | [9] 0.181 | [10] -0.015 | [11] -0.096 | [12] -0.116 | [13] 0.074 | [14] 0.169 | [15] 0.129 | [16] 0.05 | [17] 0.187 | [18] 0.075 | [19] 0.132 | [20] -0.129

MAP1A isoform 2 (UniProt P78559)
inactive: [1] 0.086 | [2] 0.208 | [3] 0 | [4] -0.078 | [5] 0.013 | [6] 0.024 | [7] -0.031 | [8] -0.003 | [9] 0.123 | [10] 0.026 | [11] -0.119 | [12] -0.002 | [13] 0.106 | [14] 0.109 | [15] -0.032 | [16] 0.109 | [17] 0.106 | [18] 0.075 | [19] 0.078 | [20] 0.013

MAN2A1 (UniProt Q16706)
inactive: [1] 0.016 | [2] -0.008 | [3] -0.001 | [4] -0.023 | [5] -0.007 | [6] 0.018 | [7] 0.018 | [8] 0.013 | [9] -0.04 | [10] 0.057 | [11] 0.031 | [12] -0.004 | [13] -0.031 | [14] -0.025 | [15] 0.021 | [16] -0.037 | [17] 0.001 | [18] -0.052 | [19] 0 | [20] -0.015

MACROD1 (UniProt Q9BQ69)
inactive: [1] -0.033 | [2] -0.27 | [3] 0.067 | [4] 0.162 | [5] -0.195 | [6] -0.057 | [7] 0.122 | [8] 0.103 | [9] -0.031 | [10] -0.113 | [11] 0.06 | [12] -0.024 | [13] -0.144 | [14] 0.209 | [15] 0.046 | [16] -0.154 | [17] 0.108 | [18] -0.15 | [19] 0.064 | [20] -0.032

MAP1B (UniProt P46821)
inactive: [1] 0.057 | [2] 0.097 | [3] -0.018 | [4] -0.017 | [5] -0.02 | [6] 0.033 | [7] -0.046 | [8] -0.028 | [9] 0.013 | [10] 0.089 | [11] -0.002 | [12] 0.013 | [13] 0.048 | [14] 0.015 | [15] 0.02 | [16] 0.048 | [17] 0.038 | [18] -0.008 | [19] 0.017 | [20] 0.024

LTA4H (UniProt P09960)
inactive: [1] 0.016 | [2] -0.064 | [3] 0.033 | [4] 0.004 | [5] -0.004 | [6] -0.057 | [7] -0.003 | [8] 0.028 | [9] -0.086 | [10] -0.02 | [11] 0.055 | [12] -0.012 | [13] -0.079 | [14] -0.023 | [15] -0.006 | [16] -0.036 | [17] -0.049 | [18] -0.003 | [19] 0.009 | [20] 0.011

MAP2K4 isoform 2 (UniProt P45985)
inactive: [1] -0.086 | [2] -0.11 | [3] 0.015 | [4] 0.008 | [5] 0.004 | [6] -0.019 | [7] 0.021 | [8] 0.045 | [9] -0.052 | [10] -0.103 | [11] 0.023 | [12] -0.005 | [13] -0.086 | [14] -0.033 | [15] -0.124 | [16] -0.06 | [17] 0.107 | [18] -0.004 | [19] -0.014 | [20] 0.068

MAN2A2 (UniProt P49641)
inactive: [1] 0.058 | [2] -0.063 | [3] 0.007 | [4] 0.045 | [5] -0.014 | [6] 0.005 | [7] -0.013 | [8] 0.019 | [9] 0.035 | [10] 0.052 | [11] 0.028 | [12] 0.009 | [13] -0.019 | [14] 0.011 | [15] 0.039 | [16] -0.034 | [17] -0.008 | [18] 0.053 | [19] 0.018 | [20] 0.045

LSM4 (UniProt Q9Y4Z0)
inactive: [1] 0.039 | [2] 0.091 | [3] -0.033 | [4] 0.027 | [5] 0.017 | [6] 0.017 | [7] -0.033 | [8] -0.009 | [9] -0.036 | [10] 0.129 | [11] 0.092 | [12] 0.003 | [13] -0.006 | [14] -0.014 | [15] 0.062 | [16] 0.018 | [17] -0.036 | [18] -0.074 | [19] -0.025 | [20] 0.055

LYSMD3 (UniProt Q7Z3D4)
inactive: [1] -0.092 | [2] -0.1 | [3] -0.024 | [4] -0.009 | [5] 0.054 | [6] 0 | [7] -0.016 | [8] -0.044 | [9] -0.061 | [10] -0.075 | [11] 0.022 | [12] 0.064 | [13] -0.15 | [14] -0.003 | [15] -0.037 | [16] -0.016 | [17] -0.135 | [18] -0.072 | [19] 0.067 | [20] 0.028

LRRC8A (UniProt Q8IWT6)
inactive: [1] 0.11 | [2] 0.066 | [3] -0.001 | [4] -0.103 | [5] 0.001 | [6] 0.101 | [7] 0.033 | [8] 0.004 | [9] 0.184 | [10] 0.07 | [11] -0.109 | [12] -0.001 | [13] 0.112 | [14] 0.002 | [15] 0.023 | [16] 0.079 | [17] 0.06 | [18] 0.003 | [19] -0.1 | [20] -0.026

MAP7D1 (UniProt Q3KQU3)
inactive: [1] 0.206 | [2] 0.117 | [3] 0.022 | [4] -0.186 | [5] -0.062 | [6] 0.154 | [7] -0.083 | [8] -0.092 | [9] 0.353 | [10] 0.206 | [11] -0.153 | [12] -0.012 | [13] 0.279 | [14] 0.164 | [15] -0.022 | [16] 0.281 | [17] 0.328 | [18] 0.081 | [19] 0.135 | [20] -0.112
